This passage reports IC50 results from US9127015B2, “Tricyclopyrazole derivatives” (NERVIANO MEDICAL SCIENCES S.R.L., priority 2009, dated 2015).

Sequences of proteins named here, by UniProt entry; tags and fusion partners are left off.
UniProt P00519, whole entry: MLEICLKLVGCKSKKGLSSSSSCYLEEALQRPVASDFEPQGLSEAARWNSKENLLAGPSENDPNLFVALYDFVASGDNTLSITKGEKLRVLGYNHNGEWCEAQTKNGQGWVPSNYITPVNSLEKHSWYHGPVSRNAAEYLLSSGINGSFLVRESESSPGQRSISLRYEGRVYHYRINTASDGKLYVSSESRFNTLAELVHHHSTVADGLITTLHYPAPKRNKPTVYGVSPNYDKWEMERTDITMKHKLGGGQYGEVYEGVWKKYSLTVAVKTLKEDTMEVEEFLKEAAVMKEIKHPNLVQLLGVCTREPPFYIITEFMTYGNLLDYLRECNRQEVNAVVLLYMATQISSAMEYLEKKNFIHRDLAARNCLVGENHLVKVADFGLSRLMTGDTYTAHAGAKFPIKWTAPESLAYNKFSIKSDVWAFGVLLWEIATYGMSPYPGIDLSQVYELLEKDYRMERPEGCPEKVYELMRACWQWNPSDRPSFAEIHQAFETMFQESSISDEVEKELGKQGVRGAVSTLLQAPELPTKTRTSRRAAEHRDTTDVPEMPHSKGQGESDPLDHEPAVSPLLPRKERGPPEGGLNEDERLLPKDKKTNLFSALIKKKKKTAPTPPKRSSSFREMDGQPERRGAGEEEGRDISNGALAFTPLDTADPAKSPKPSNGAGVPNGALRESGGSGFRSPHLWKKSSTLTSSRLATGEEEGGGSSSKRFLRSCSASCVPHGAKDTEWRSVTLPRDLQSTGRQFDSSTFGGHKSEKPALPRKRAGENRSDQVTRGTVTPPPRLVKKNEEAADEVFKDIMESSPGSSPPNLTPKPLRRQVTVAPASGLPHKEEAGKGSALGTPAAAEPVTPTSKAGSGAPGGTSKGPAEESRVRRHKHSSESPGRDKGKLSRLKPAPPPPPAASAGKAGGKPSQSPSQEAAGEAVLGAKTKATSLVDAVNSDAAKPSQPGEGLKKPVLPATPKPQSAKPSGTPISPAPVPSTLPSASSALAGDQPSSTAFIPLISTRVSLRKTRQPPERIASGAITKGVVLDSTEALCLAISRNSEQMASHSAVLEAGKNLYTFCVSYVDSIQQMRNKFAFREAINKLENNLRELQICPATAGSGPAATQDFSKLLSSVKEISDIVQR
UniProt Q07912, whole entry: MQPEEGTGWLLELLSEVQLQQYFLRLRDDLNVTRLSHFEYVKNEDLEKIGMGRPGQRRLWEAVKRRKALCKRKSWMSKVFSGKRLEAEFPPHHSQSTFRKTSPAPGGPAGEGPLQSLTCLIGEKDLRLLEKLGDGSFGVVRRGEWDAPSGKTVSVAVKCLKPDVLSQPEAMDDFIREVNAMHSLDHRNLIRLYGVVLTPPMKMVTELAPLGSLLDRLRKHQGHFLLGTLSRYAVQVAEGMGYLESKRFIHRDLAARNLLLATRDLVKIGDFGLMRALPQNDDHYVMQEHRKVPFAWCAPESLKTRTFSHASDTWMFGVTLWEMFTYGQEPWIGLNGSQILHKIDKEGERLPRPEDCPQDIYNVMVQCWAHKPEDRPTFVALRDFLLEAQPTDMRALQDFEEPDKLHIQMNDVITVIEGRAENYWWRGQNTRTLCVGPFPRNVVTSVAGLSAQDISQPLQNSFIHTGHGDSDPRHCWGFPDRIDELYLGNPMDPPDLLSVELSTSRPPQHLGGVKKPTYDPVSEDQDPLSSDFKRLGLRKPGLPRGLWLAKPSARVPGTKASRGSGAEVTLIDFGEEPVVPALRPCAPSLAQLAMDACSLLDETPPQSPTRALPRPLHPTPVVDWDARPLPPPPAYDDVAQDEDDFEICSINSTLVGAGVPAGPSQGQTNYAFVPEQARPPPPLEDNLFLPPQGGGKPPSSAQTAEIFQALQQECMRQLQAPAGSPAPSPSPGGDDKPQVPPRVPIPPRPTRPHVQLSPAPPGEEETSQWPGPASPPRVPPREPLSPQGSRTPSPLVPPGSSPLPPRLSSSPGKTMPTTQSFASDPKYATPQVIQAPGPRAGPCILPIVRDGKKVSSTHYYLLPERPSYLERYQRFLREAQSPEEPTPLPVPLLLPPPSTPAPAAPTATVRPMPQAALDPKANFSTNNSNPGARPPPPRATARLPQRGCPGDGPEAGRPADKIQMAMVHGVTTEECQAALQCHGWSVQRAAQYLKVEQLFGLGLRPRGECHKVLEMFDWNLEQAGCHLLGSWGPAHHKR

One assay concerns the target ABL (Homo sapiens, UniProt P00519). The experiment in a line: Kinase inhibition assay, IC50 (Table A). As to conditions: Enzyme ABL. Here is the method: (§1) The inhibiting activity of putative kinase inhibitors and the potency of selected compounds is determined through a method of assay based on the use of the Kinase-Glo® Luminescent Kinase Assay (commercially available from Promega corporation and described in Koresawa, M. and Okabe, T. (2004) High-throughput screening with quantitation of ATP consumption: A universal non-radioisotope, homogeneous assay for protein kinase. Assay Drug Dev. Technol. 2, 153-60).
(§2) The inhibitory activity of putative kinase inhibitors and the potency of selected compounds were also determined using a trans-phosphorylation assay.
(§3) Specific peptide or protein substrates are trans-phosphorylated by their specific ser-thr or tyr kinase in the presence of ATP traced with ^33P-γ-ATP, and in the presence of their own optimal buffer and cofactors. At the end of the phosphorylation reaction, more than 98% unlabeled ATP and radioactive ATP is captured by an excess of the ion exchange dowex resin; the resin then settles down to the bottom of the reaction plate by gravity. Supernatant is subsequently withdrawn and transferred into a counting plate, then evaluated by β-counting.
(§4) Reaction conditions are target (enzyme) dependent and thus undergo individual adaptations. Also the buffer conditions may vary depending on the kinase of interest. […]

Another assay has as its target ACK1 (Homo sapiens, UniProt Q07912). The experiment in a line: Kinase inhibition assay, IC50 (Table A). Particulars: Enzyme ACK1. As to the method:
as §1, §2, §3, §4

The structures appear in SMILES notation. The source holds more than one record for some entries. They are shown here; other results are not. There may be further records. Values given together seem to repeat one measurement (runs, samples, wells or individuals).

Regarding `O=C(NCC1CC1)c1cc2n(c1)CCc1c(NC(=O)c3c(Cl)cccc3Cl)n[nH]c1-2` [Example A38-M1-B41], the IC50 at ABL was 2.29 µM and 920 nM; on ACK1 it was 2.48 µM and 1 µM.

As usually defined, the IC50 is the concentration that inhibits the measured activity by half.
